Laboratory results as given in PubChem BioAssay AID624297 (National Center for Advancing Translational Sciences (NCATS), 2012).
Out of some 340,000 compounds screened, about 6,200 (1.8%) were called active. The inconclusive results got no clear call from the source; some entries with a clear call stand among them for comparison. The call rests on the fitted dose curve; in most records, active means well fitted activation curve with a large enough effect; inconclusive means small, poorly fitted or top-dose-only effect; inactive means no such curve, though single readings can be large or run the other way. Where the call is inconclusive, the potency comes from a doubtful curve fit.

Test: A quantitative high throughput screen for small molecules that induce DNA re-replication in SW480 colon adenocarcinoma cells. Further: nearly all actives have a fitted effect of over 55% in size. On re-replication activation: % of control where 0% means no effect.
Conditions: Hoechst DNA content imaging, 48 h; re-replication activation: at 46.1 µM (top of the series) unless noted
Summary of the method: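 Quantitative HTS format with DMSO vehicle controls; 48 hr drug incubation at 37 C, then 40 min Hoechst staining and scanning imager measurement at 405 nm excitation.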
Potency means the concentration at half of the fitted maximal effect.

SMILES | Potency | re-replication activation
Cc1ccccc1C(=O)N1CCC(C(=O)Nc2ccccc2N2CCCC2)CC1 | inconclusive: 7.31 µM [activator, partial curve, poor fit] | –
CCC(c1nnnn1CCc1ccccc1)N(Cc1ccco1)Cc1cc2c(C)ccc(C)c2[nH]c1=O (centres undefined) | inconclusive: 18.4 µM [activator, partial curve, poor fit] | –
CCOc1ccc(N2C(=O)CC(/C=C3/N(C)c4ccccc4C3(C)C)C2=O)cc1 (centres undefined) | – | inactive: 5.09%
CCOCCCNC(=O)c1cc(Cl)c(NC(=O)C2=C(C)OCCS2)cc1OC | – | inactive: -3.3%
CCCCCC(=O)NC(NC(=S)N1CCOCC1)C(Cl)(Cl)Cl (centres undefined) | – | inactive: -4.15%
CCOc1cc2c3c(c1)C(C)=CC(C)(C)N3C(=O)C2=O | inconclusive: 2.31 µM [activator, full curve, poor fit] | –
CCN(Cc1ccc2c(c1)OCCO2)C(=O)CN1C(=O)NC2(CCCCC2)C1=O | – | inactive: -4.46%
COc1ccc(C2CC(c3cccs3)=NN2C(=O)CSc2nc(=O)n3ccccc3n2)cc1 (centres undefined) | inconclusive: 29.1 µM [activator, single point] | –
O=C(NCC1CCCO1)C1CCCN(S(=O)(=O)c2ccc(F)cc2)C1 (centres undefined) | inconclusive: 29.1 µM [activator, single point] | –
NC(=O)Cn1c(=O)n(C2CCCCC2)c(=O)c2c3c(sc21)CCCCC3 | inconclusive: 1.3 µM [activator, full curve] | –
COc1cc(OC)c2c(-c3cccc(-c4ccoc4)c3)cc(=O)oc2c1 | inconclusive: 20.6 µM [activator, single point] | –
N#C/C(=C\c1c(F)cccc1Cl)C(=O)NC1CC1 | inconclusive: 29.1 µM [activator, single point] | –
O=C(CSc1nnc2ccc(-c3ccco3)nn12)Nc1ccccc1F | inconclusive: 5.17 µM [activator, partial curve, poor fit] | –
N#CCc1ccccc1C(=O)OCC(=O)N(Cc1ccccc1)Cc1ccccc1 | – | inactive: 3.04%
COc1c(C(=O)Nc2ccc(Cc3ccncc3)cc2)ccc2ccccc12 | inconclusive: 29.1 µM [activator, single point] | –
Cn1c(C23CC4CC(CC(C4)C2)C3)n[nH]c1=S | inconclusive: 0.82 µM [activator, full curve] | –
O=C(Nc1ccc2nc(-c3ccco3)c(-c3ccco3)nc2c1)N1CCCCCC1 | inconclusive: 29.1 µM [activator, partial curve, poor fit] | –
COc1ccc(C=NNc2ccc([N+](=O)[O-])cn2)cc1 | – | inactive: 4%
Nc1ccc(S(=O)(=O)c2ccc(NC(=O)c3cccnc3)cc2)cc1 | – | inactive: 10.4%

As a short view, some entries already given.
SMILES | Potency | re-replication activation
CCOc1cc2c3c(c1)C(C)=CC(C)(C)N3C(=O)C2=O | inconclusive: 2.31 µM [activator, full curve, poor fit] | –
CCN(Cc1ccc2c(c1)OCCO2)C(=O)CN1C(=O)NC2(CCCCC2)C1=O | – | inactive: -4.46%
